From doi:10.1101/2020.02.20.958140

Chains of the proteins cited; added tags and fusions are not shown.
UniProt Q68FD5: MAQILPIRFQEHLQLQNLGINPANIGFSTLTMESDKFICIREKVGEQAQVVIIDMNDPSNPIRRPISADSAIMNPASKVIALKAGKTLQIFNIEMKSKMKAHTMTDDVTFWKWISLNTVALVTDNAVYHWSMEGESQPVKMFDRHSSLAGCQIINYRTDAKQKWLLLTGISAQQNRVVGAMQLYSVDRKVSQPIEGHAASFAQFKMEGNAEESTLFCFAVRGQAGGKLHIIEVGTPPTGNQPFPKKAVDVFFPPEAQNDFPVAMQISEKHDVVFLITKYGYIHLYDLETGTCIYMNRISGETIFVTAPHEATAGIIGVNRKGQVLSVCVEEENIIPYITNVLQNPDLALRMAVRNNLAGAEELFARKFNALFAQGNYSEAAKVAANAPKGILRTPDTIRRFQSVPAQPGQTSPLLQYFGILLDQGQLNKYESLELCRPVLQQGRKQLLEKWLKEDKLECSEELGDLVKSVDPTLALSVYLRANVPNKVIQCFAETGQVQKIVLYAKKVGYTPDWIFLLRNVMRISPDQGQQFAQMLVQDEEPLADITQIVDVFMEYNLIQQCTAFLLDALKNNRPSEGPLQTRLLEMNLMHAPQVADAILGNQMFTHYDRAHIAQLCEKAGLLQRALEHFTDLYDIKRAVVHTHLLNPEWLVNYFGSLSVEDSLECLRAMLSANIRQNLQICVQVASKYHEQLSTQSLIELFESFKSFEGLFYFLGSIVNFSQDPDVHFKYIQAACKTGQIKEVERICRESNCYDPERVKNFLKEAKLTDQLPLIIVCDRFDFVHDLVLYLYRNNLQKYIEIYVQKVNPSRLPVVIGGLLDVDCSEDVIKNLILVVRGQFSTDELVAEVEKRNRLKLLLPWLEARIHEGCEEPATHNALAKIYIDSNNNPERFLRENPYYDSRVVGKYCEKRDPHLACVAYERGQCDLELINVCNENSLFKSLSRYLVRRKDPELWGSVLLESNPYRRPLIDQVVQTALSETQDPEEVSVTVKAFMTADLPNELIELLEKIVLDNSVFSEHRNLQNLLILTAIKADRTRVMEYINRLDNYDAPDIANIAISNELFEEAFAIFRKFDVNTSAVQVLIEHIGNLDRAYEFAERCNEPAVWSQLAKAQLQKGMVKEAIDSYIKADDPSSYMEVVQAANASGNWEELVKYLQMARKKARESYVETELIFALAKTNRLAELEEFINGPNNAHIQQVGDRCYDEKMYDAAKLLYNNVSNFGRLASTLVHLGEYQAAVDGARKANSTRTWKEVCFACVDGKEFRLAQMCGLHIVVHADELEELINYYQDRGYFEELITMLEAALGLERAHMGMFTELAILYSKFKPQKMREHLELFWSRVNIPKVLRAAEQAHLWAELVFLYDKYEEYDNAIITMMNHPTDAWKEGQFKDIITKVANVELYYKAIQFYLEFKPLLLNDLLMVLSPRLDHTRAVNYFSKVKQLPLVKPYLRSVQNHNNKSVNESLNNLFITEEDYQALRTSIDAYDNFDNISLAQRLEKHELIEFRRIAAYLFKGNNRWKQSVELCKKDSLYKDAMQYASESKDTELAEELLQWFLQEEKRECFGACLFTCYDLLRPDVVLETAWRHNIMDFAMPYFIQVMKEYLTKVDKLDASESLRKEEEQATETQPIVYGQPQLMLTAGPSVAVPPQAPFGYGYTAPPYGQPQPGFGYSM
UniProt Q64331: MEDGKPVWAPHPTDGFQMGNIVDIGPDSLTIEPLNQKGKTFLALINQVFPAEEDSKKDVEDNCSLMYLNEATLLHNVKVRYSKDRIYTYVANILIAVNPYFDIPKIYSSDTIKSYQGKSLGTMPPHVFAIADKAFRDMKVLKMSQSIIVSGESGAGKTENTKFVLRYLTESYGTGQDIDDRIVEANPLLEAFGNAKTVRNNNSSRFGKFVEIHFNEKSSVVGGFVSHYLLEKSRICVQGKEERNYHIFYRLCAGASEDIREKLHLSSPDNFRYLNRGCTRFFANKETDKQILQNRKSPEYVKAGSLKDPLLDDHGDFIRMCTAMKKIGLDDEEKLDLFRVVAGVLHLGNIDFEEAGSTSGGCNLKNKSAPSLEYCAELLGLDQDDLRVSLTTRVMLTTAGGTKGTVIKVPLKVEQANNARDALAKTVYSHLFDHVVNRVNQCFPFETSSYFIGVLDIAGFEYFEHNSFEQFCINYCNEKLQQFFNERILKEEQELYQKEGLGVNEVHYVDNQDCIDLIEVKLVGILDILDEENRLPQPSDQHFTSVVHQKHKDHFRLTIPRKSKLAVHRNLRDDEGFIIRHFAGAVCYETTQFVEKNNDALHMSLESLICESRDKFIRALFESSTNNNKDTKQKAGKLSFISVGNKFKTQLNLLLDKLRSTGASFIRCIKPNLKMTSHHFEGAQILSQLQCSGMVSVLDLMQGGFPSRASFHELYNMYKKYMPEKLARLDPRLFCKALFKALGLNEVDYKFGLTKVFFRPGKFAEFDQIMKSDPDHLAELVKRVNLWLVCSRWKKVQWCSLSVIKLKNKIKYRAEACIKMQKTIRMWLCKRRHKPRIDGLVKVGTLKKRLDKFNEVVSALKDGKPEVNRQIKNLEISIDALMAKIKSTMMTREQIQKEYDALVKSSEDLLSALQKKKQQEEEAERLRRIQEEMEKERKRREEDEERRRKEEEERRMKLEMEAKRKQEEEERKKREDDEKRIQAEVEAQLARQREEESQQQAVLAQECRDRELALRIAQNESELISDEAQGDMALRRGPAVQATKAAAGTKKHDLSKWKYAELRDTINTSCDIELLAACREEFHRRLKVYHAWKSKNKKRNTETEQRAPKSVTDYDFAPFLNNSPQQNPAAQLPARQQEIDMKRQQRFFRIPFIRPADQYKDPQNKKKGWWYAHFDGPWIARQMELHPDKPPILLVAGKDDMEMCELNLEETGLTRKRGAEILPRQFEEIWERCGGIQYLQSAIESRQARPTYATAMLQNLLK
UniProt Q61879: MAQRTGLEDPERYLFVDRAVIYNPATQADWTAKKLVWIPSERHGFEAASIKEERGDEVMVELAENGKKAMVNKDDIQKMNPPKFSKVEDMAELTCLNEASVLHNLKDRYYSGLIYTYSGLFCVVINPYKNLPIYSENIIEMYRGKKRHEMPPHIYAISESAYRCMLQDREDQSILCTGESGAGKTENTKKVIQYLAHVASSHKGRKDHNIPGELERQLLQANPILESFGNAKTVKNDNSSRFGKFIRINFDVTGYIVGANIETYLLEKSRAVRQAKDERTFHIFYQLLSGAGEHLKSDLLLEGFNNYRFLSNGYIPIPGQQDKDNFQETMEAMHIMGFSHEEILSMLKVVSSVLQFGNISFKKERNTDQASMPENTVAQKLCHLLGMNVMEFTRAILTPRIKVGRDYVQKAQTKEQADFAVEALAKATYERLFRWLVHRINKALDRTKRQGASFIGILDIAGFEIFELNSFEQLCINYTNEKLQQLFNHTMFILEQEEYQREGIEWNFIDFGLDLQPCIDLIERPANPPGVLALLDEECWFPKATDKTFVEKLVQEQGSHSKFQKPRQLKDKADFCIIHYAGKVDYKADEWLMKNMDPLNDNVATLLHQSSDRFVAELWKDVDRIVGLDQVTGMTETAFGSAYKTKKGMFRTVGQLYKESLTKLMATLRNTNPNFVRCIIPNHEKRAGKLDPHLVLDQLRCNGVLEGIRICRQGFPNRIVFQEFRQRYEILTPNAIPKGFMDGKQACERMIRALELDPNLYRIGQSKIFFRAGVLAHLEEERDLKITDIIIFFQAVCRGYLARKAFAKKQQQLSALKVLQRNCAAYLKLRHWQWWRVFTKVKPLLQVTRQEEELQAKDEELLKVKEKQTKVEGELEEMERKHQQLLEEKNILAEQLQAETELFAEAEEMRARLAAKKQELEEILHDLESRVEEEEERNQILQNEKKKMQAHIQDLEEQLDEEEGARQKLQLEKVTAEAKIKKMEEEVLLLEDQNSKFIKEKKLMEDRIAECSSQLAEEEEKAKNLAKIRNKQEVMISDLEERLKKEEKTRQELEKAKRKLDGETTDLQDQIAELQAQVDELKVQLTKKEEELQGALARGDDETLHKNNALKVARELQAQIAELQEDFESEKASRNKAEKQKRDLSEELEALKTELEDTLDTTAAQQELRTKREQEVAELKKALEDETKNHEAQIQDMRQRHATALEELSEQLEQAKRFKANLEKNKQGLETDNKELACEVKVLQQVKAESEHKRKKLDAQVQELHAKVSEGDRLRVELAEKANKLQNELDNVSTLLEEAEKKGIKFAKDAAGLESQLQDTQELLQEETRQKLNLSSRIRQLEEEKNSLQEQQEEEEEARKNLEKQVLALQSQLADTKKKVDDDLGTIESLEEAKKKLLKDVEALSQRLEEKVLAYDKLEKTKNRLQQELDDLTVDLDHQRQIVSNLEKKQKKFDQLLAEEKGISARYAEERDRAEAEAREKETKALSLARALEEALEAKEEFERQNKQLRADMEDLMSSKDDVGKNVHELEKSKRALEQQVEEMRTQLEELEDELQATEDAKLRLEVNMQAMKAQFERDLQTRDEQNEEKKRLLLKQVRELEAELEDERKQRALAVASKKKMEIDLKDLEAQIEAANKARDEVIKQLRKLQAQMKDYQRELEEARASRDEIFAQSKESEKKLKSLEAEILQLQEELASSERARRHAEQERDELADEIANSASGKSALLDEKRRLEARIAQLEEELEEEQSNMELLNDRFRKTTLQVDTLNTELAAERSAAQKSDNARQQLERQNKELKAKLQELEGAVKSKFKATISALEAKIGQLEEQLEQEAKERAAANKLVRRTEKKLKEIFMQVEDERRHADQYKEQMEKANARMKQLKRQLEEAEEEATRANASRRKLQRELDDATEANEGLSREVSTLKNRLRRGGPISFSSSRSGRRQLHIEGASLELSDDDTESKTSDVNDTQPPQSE

Target: clathrin (immunoprecipitated with an anti-clathrin heavy chain antibody) (mouse (endogenous in sciatic nerve)) (UniProt Q68FD5)
Assay: affinity purification with mass spectrometry

Row | Substance | binding
1 | myosin-6 (from UniProt Q64331 1-1262) | binds
2 | myosin-10 (from UniProt Q61879 1-1976) | binds

These are yes or no findings as the source states them, for the method shown. Binding seen in cells or lysates may run through a third protein. These calls come from enrichment with a bait or labelling near it, and not all partners need be listed.
